Measured values reported in the supplement of paper PMC6445147.
Values scatter widely in this assay.

B1: human tRNA-Pro; a variant is named by its letters at N, in order (parent)
chain: GGCTCGTTGGTCTAGNGGTATGATTCTCGCTTAGGGTGCGAGAGGTCCCGGGTTCNNATCCCGGACGAGCCC

Tests used:
[1] = variants of: B1; assay: tRNA Pol-III promoter activity, log2 (circRNA frequency / plasmid DNA frequency) (log2 ratio); higher = stronger promoter activity; settings: HEK293T; construct: no Pol-II promoter ((-)CMV library)
[2] = variants of: B1; assay: tRNA 3' processing efficiency (processed reads / all reads, maximum-likelihood estimate) (fraction); higher = more efficient 3' processing; settings: HEK293T; construct: no Pol-II promoter ((-)CMV library)
[3] = variants of: B1; assay: tRNA 5' processing efficiency (processed reads / all reads, maximum-likelihood estimate) (fraction); higher = more efficient 5' processing; settings: HEK293T; construct: CMV Pol-II promoter ((+)CMV library, decapped)

| Variant | tRNA Pol-III promoter activity (log2) [1] | tRNA 3' processing efficiency [2] | tRNA 5' processing efficiency [3] |
| --- | --- | --- | --- |
| TAT A14G G17T T53A | 3.3 | 0.33 |  |
| TGG | 4.34 | 0.75 |  |
| GAA G17T T19G T54A | 3.62 | 0.25 |  |
| TAA A14T G15C T19G | 4.45 | 0.5 |  |
| GAT G18A T19C | 2.79 | 0.4 |  |
| GAT G9T A14G A58T | 4.93 | 0.25 |  |
| CAT G17C | 3.34 | 0.17 |  |
| GAA T8G G15T A58G | 2.36 | 0.5 |  |
| GAA T8C A20T T53A | 3.36 | 0.25 |  |
| GAT A58T T59C | 3.67 | 0.2 |  |
| TTA T19G | 3.35 | 0.42 |  |
| GTG A20C | 6.62 | 0.33 |  |
| GAA G9A A20C A58T | 2.34 | 0.29 |  |
| GTA T19A A58C | 4.26 | 0.33 |  |
| TAA T19A A58T | 3.14 | 0.17 |  |
| GTA G9T A58C | 1.93 | 0.25 |  |
| GTT A14C | 4.5 | 0.3 |  |
| TAA A14C A58T | 3.25 | 0.2 |  |
| GTC A14G | 3.09 | 0.2 |  |
| ATA A14G | 3.3 | 0.26 |  |
| GGA T19C T59G | 4.93 | 0.25 |  |
| TTA C55A | 3.72 | 0.33 |  |
| GAT G17T | 0.137 | 0.27 |  |

Single records, as listed above:
GTT A14C is listed as tRNA Pol-III promoter activity (log2) [1] = 4.5; tRNA 3' processing efficiency [2] = 0.3
TGG is listed as tRNA Pol-III promoter activity (log2) [1] = 4.34; tRNA 3' processing efficiency [2] = 0.75
GTA G9T A58C is listed as tRNA Pol-III promoter activity (log2) [1] = 1.93; tRNA 3' processing efficiency [2] = 0.25
TAA A14T G15C T19G is listed as tRNA Pol-III promoter activity (log2) [1] = 4.45; tRNA 3' processing efficiency [2] = 0.5

(next part)

| Variant | tRNA Pol-III promoter activity (log2) [1] | tRNA 3' processing efficiency [2] | tRNA 5' processing efficiency [3] |
| --- | --- | --- | --- |
| GGA A20G | 0.694 | 0.62 |  |
| GAA G9T A58T | -0.229 | 0.4 | 0.27 |
| GAC A20T T27A | 7.99 | 0.52 |  |
| GAC G15A G17T A20G | 4.94 | 0.25 |  |
| GCA A14T A58C | 4.36 | 0.13 |  |
| GAA G18A A58T T59C | 6.17 | 0.2 |  |
| TAA T19G | 1.82 | 0.43 |  |
| GGA G17T | -0.249 | 0.2 |  |
| GAA G17C A58G | -0.484 | 0.25 |  |
| GGT A14T | 2.61 | 0.25 | 0.33 |
| GTA G9A T53G | 1.55 | 0.25 |  |
| GAG G9A A20T | 2.79 | 0.5 |  |
| GGA T53G A58G | 8.11 | 0.83 |  |
| TTA T59A | 6.08 | 0.88 |  |
| GAA A14T A58C T59A | 3.63 | 0.44 |  |
| GGC | 2.24 | 0.26 |  |
| GAA G9A T53C | 1.43 | 0.08 |  |
| GAT G9A A58T | 1.51 | 0.17 |  |
| CAA T19G C55T | 2.51 | 0.33 |  |
| GAA G15C G17T C55G | 4.26 | 0.29 |  |
| GGA T53G | 1.86 | 0.38 |  |
| GAA G9A T19G T59C | 6.25 | 0.4 |  |
| GTG G18T | 3.26 | 0.4 |  |

| Variant | tRNA Pol-III promoter activity (log2) [1] | tRNA 3' processing efficiency [2] | tRNA 5' processing efficiency [3] |
| --- | --- | --- | --- |
| GTA G34A | 7.25 | 0.5 |  |
| GAA A14T T53A T59G | 4.16 | 0.29 |  |
| GAA G15T G17T T54A | 6.16 | 0.71 |  |
| GAA T19C A58C | 4.48 | 0.88 | 0.25 |
| CAA G18A T53A | 6.36 | 0.2 |  |
| GTA T19A | 2.28 | 0.26 | 0.5 |
| TAG A20C | 4.85 | 0.37 |  |
| GAA G17T A58C T59A | 2.13 | 0.25 |  |
| GAA T19A A20T | 1.1 | 0.56 |  |
| GAT G15T G18A | 4.45 | 0.25 |  |
| GAA T8C G15C T19A | 3.94 | 0.62 |  |
| ATG A14G | 8.45 | 0.22 |  |
| GAA A14G C55T A58T | 1.44 | 0.26 |  |
| GAG A14T A58G | 3.53 | 0.5 |  |
| GGA G15T C55T | 1.77 | 0.25 |  |
| GAC G17C T59A | 3.76 | 0.25 |  |
| CTA A58C | 6.35 | 0.37 |  |
| GGA G17C T59A | 4.45 | 0.25 |  |
| GCA T59G | 0.151 | 0.57 |  |
| GAA A14G | -1.92 | 0.54 | 0.31 |
| GAA G15A T19G T59G | 4.62 | 0.25 |  |
| GGA G18T T59G | 3.12 | 0.13 |  |
| GAA A14G G18A T59A | 3.52 | 0.43 |  |

| Variant | tRNA Pol-III promoter activity (log2) [1] | tRNA 3' processing efficiency [2] | tRNA 5' processing efficiency [3] |
| --- | --- | --- | --- |
| TCA T59G | 3.64 | 0.53 |  |
| GCA A14G A58C | 3.03 | 0.25 |  |
| GGA G15C A58T | 2.04 | 0.25 |  |
| GAA A20T T54C T59A | 3.68 | 0.4 |  |
| GAA G17C A20T T53A | 4.74 | 0.14 |  |
| GGG T53G A58G | 6.25 | 0.2 |  |
| GAT | 3.76 | 0.34 | 0.18 |
| GAA T54A A58T T59C | 5.51 | 0.67 |  |
| GAT G15A A58G | 3.55 | 0.2 |  |
| GAC A14T A20G | 3.75 | 0.13 |  |
| TAG T19C | 4.38 | 0.57 |  |
| GAA T8G G15C T59A | 4.21 | 0.42 |  |
| GAA G15C C55T T59C | 2.76 | 0.25 |  |
| GGA C55T A58C | 4.34 | 0.5 |  |
| AAT G17T | 2.23 | 0.25 |  |
| GAA G15T G18C A20T A58T | 6.53 | 0.83 |  |
| GAA T8G G9T T19A T59G | 4.03 | 0.33 |  |
| GAA G15A G17C T19A | 4.15 | 0.85 |  |
| GAA T19A T53G A58T | 1.68 | 0.25 |  |
| GCA A58T T59C | 4.94 | 0.25 |  |
| GGA T8G G18T T53A | 6.51 | 0.5 |  |
| GAG A20G A58T | 5.45 | 0.62 |  |
| CAC T8G | 4.34 | 0.13 |  |

| Variant | tRNA Pol-III promoter activity (log2) [1] | tRNA 3' processing efficiency [2] | tRNA 5' processing efficiency [3] |
| --- | --- | --- | --- |
| TTA T19G A20T G35A | 3.71 | 0.25 |  |
| CGA G9A T53A | 3.98 | 0.25 |  |
| GAA G9A G17C C55G | 3.23 | 0.25 |  |
| GAA T54G | -2.58 | 0.31 | 0.31 |
| GAA G9C G18A T54A | 3.94 | 0.57 |  |
| AAA A20G A58G | 2.83 | 0.26 |  |
| GAA T8C T54A | 0.934 | 0.53 |  |
| GAT A14G T19A A20C | 6.84 | 0.57 |  |
| TAA T59G | 2.13 | 0.27 |  |
| CAA G17C A58G | 3.93 | 0.14 |  |
| GAC T19C | 1.06 | 0.38 |  |
| GGA G17C T59C | 3.93 | 0.25 |  |
| TAC T19G | 3.64 | 0.32 |  |
| CTT A14T | 4.94 | 0.25 |  |
| GTA T8C T59C | 6.05 | 0.15 |  |
| GAG T19A T59A | 5.03 | 0.25 |  |
| GAA G51A | 4.36 | 0.44 |  |
| TAA T19G T53A | 6.03 | 0.37 |  |
| GTA A14C G18A | 2.93 | 0.22 |  |
| GGA T19A A58G T59A | 3.3 | 0.33 |  |
| GAT A14C A58G | 4.07 | 0.2 |  |
